Laboratory results published in paper PMC10441969, “Small protein Cgl2215 enhances phenolic tolerance by promoting MytA activity in Corynebacterium glutamicum” (Stress Biology, 2022).
Read-outs that look alike come from different tables or passages of the source. These are yes or no findings as the source states them, for the method shown. Binding seen in cells or lysates may run through a third protein. These calls come from enrichment with a bait or labelling near it, and not all partners need be listed. Tags and fused reporters may be left off the sequences shown.

Sequences of proteins named here, by UniProt entry; tags and fusion partners are left off.
UniProt H7C663: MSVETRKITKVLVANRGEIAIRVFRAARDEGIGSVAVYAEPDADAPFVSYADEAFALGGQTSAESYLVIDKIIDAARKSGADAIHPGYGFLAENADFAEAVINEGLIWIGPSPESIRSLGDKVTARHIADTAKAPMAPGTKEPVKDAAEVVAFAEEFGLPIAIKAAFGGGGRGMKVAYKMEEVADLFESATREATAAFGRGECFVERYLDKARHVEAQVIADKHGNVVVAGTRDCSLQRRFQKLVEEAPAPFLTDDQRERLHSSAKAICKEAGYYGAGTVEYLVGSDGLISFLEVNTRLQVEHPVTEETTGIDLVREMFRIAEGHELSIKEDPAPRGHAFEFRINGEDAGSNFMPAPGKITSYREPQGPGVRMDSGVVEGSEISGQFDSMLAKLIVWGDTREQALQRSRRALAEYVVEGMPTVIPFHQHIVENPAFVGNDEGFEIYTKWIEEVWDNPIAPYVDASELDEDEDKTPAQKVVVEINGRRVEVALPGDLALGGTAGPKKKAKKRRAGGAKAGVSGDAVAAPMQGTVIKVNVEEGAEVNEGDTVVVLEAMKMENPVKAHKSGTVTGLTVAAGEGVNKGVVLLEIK

T1: GST-Cgl2215 (C. glutamicum) (UniProt Q8NNI6)
T1 sequence: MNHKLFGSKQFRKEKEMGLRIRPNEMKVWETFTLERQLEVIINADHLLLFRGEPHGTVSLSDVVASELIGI

B1: C. glutamicum mycoloyltransferase A (MytA) (enzyme, UniProt P0C1D6 44-657)
chain: QSSNLSSDAVIGSIAQGVTDGLTDYLKPRVEELPAGEVTYPEIAGLPDGVRVISAEWATSKHVILTIQSAAMPERPIKVQLLLPRDWYSSPNREFPEIWALDGLRAIEEQSGWTIETNIEQYYADKNAIVVLPVGGESSFYSDWEGPNNGKNYQWETFLTQELAPILDKGFRSNTDRAITGISMGGTAAVNIATHHPDMFKFVGSFSGYLDTTSAGMPIAISAALADAGGYDANAMWGPVGSERWQENDPKSNVDKLKGKTIYVSSGNGADDFGKEGSVAIGPANAAGVGLEVISRMTSQTFVDRASQAGVEVVASFRPSGVHSWEYWQFEMTQAFPHIANALGMSTEDRGVECAPVGAIADAVADGAMGTCLTNEYDVTGGKAQDFANGRAYWSANTGAFGLVGRINARYSELGGPASWLGYPTSSELKTPDGRGRFVTFEHGSIYWTATTGPWEIPGDMLAAWGTQDYEKGSLGYPTGAAVEYNGGLRQQFEGGYVFRTSNNQSYWVRGEISKKYAEDGIFAQLGFPTGNEKLINGGAFQEFEKGNIYWSASTGAHVILHGDIFDAWGAKGWEQGEYGFPTSDQTAITAGGQTIDFQNGTIRQVNGRIEESR

Legend:
[1] = target: T1, GST-Cgl2215 (C. glutamicum); experiment: affinity purification with mass spectrometry; purified GST-Cgl2215 (0.1 mg) on GST magnetic beads, incubated with wild-type C. glutamicum lysate overnight at 4 °C; washed five times with TEN buffer (50 mM Tris-HCl pH 8.0, 500 mM NaCl); SDS-PAGE, silver stain, bands analysed by LC-MS/MS; only the target purified
[2] = target: T1, GST-Cgl2215 (C. glutamicum); experiment: as above; remark: listed apart in the source

Row | Molecule | binding [1] | binding [2]
1 | Tkt (enzyme) | binds | 
2 | AccBC (from UniProt H7C663 1-591) (enzyme) | binds | 
3 | SdhA (enzyme) | binds | 
4 | B1 |  | binds
